The target of test [1] is PtkA, protein-tyrosine kinase (BY-kinase) (B. subtilis). In words: two-hybrid; yeast two-hybrid, Gal4; TkmA or PtkA fused to the Gal4 DNA-binding domain screened against the B. subtilis library; mated diploid cells, growth on selective medium SD-LUH; specificity test with empty vectors.
The target in test [2] is TkmA, transmembrane activator (modulator) of the protein-tyrosine kinase PtkA (B. subtilis). The test is described as above.

Results are given in words; binding and its absence hold for the method and conditions named. For some assays here: A result given as binding can be weak or reduced; the word gives no strength.

B1: C-terminal domain (residues 101–194) of the fatty-acid-displaced regulator FatR (domain or fragment, UniProt O08335 101-194)
chain: LFFLETKKDAHYLNHTSKKMIENLTQMLDDYFNKGKAEGVIRSLPSNVLIAIVLGAFLKIYQLVQTGDIEMDTDLITELEQCCWDAIKLHSSQK
Regarding B1, the binding result in test [1] is listed as “no binding”; in test [2], “binds”.

For the origin of these results see article PMC3814354, “Interaction of bacterial fatty-acid-displaced regulators with DNA is interrupted by tyrosine phosphorylation in the helix-turn-helix domain”.
